These are yes or no findings as the source states them, for the method shown. Binding can be weak; no strength is given.

The target in the assay is ANGPTL3-FLD-biotin (human). In words: competitive ELISA: integrin αvβ3 coated at 1 µg/mL, antibody titrated in 0.16 µg/mL ANGPTL3-FLD-biotin; blocked partner: integrin αvβ3; OD450. (In general: ELISA stands for enzyme-linked immunosorbent assay.)

B1: anti-ANGPTL3 monoclonal antibody (prepared in Example 2) (antibody, IgG1, V domains shown)
VH: QVQLKESGPGLVAPSQSLSITCTVSGFSLTTYGVSWVRQPPGKGLEWLGVIWGDGNTNYHSALISRLSISKDNSKSQVFLKLNSLQTDDTATYYCAKGGPYGNYVPFDYWGQGTTLTVSS
VL: DIVLTQSPASLAVSLGQRATISCRASESVDSYGNSFMHWYQQKPGQPPKLLIYRASNLESGIPARFSGSGSRTDFTLTINPVEADDVATYYCQQSDEEPPTFGGGTNLEIK
On to B1, for which the binding entry is “binds”.
